“Also recorded” adds a separate entry of the source. At least one structure is not confirmed: it was looked up by name or label, or the drawing left a doubt.
Tests used:
Type in all cases: in vivo, rat
[1] = system: myeloperoxidase (MPO) activity; test: Mucosal myeloperoxidase activity after indomethacin; settings: rats; tegaserod 1 mg/kg, omeprazole 20 mg/kg i.p. pretreatment; glandular stomach 6 h after indomethacin 50 mg/kg
Experimental: Prior to the experiment the rats were fasted overnight with free access to water. On the day of experiment the rats received intragastric gavage of 50 mg/kg indomethacin dissolved in 2% NaCO3 and brought to a volume of 1.5 mL in saline (pH 6.8). Indomethacin was given at 7:30 A.M. and the animals were then placed in their home cage with free access to food and water. The rats were euthanized 6 h post-indomethacin infusion, the stomach was isolated and placed in Ca^2+-free Krebs buffer aerated with 95% O2 and 5% CO2.
Drugs were prepared fresh for each experiment and stored at 4° C. between treatments. […] A separate control group received treatment with propylene glycol only. […]
The stomach was cut along the small curvature, cleansed of ingested food and the fundus was separated from the glandular portion of the stomach. […] The total length of hemorrhagic lesions, which were approximately 1 mm wide, was measured and served as an index of ulceration. […]
Following dissection, the mucosal tissue was snap-frozen in liquid nitrogen and stored at −80° C. and MPO activity was assayed simultaneously. […] MPO activity was expressed as equivalent to the activity of the relative standard (ng of HRP) converting the same amount of TMB substrate for 10 min at room temperature. […]

[2] = system: circular muscle strips from the gastric antrum; test: Contractile response to KCl (80 mM) in antral circular muscle strips of pretreated indomethacin rats; settings: strips from indomethacin-treated rats pretreated with tegaserod 1 mg/kg, omeprazole 20 mg/kg, vs vehicle
[3] = system: circular muscle strips from the gastric antrum; test: Contractile responses to carbachol in antral circular muscle strips of pretreated indomethacin rats; settings: strips from indomethacin-treated rats pretreated with tegaserod 1 mg/kg, omeprazole 20 mg/kg; vs vehicle
[4] = system: circular muscle strips from the gastric antrum; test: Contractile responses to 5-HT in antral circular muscle strips of pretreated indomethacin rats; settings: strips from indomethacin-treated rats pretreated with tegaserod 1 mg/kg, omeprazole 20 mg/kg; vs vehicle
[5] = system: circular muscle strips from the gastric antrum; test: Contractile responses to EFS of enteric nerves in antral muscle strips of pretreated indomethacin rats; settings: for linear frequency-response relationship of EFS contractile responses: EFS 0.5 ms, 1-15 Hz, strips from indomethacin-treated rats pretreated with tegaserod 1 mg/kg, omeprazole 20 mg/kg

COc1ccc2[nH]c([S+]([O-])Cc3ncc(C)c(OC)c3C)nc2c1 (stereo not shown) [Omeprazole, omeprazole]
mucosal MPO activity [1]: reduced gastric ulceration and mucosal inflammation; also recorded: inhibited MPO activity to levels that were not significantly different from those in naïve animals
amplitude of KCl-induced contractions [2]: showed a tendency to prevent the development of hypercontractile responses to KCl, however in the effect of neither of the drugs reached statistical significance
maximal carbachol-induced contraction [3]: not significantly different
amplitude of the maximal response to 5-HT [4]: did not differ significantly
linear frequency-response relationship of EFS contractile responses [5]: preserves the linear frequency-response relationship
linear frequency-response relationship of EFS contractile responses ([5]; listed as omeprazole): protected the linear increase in the amplitude of contractile responses
Indomethacin-induced hypercontractility (KCl, carbachol, 5-HT, EFS; overall statement) ([5]; antral circular muscle strips, tegaserod 1 mg/kg, omeprazole 20 mg/kg pretreatment): unaffected
